Results reported in article PMC7861556.
Where two headings read alike, the source gives them in different places. Results are given in words; binding and its absence hold for the method and conditions named. In cells and extracts the contact can be indirect. These calls come from enrichment with a bait or labelling near it, and not all partners need be listed. For some of these results: Sequences can lack the tags named with a protein.

By UniProt entry, the sequences of proteins in these tests, tags left out.
UniProt Q8CIN4: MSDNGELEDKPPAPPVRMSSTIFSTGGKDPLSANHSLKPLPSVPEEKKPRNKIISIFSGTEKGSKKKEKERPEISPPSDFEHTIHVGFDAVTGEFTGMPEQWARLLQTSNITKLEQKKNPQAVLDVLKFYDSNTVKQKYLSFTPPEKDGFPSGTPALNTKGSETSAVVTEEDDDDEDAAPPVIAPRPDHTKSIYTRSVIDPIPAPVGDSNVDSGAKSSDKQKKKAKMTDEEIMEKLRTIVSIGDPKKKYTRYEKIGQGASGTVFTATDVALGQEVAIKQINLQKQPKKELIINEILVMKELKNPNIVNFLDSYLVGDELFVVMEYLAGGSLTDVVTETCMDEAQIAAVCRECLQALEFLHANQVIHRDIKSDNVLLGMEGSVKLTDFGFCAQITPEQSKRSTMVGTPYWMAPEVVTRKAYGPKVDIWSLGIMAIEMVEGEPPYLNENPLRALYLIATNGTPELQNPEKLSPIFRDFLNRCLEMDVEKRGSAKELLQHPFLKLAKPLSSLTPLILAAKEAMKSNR
UniProt P99024: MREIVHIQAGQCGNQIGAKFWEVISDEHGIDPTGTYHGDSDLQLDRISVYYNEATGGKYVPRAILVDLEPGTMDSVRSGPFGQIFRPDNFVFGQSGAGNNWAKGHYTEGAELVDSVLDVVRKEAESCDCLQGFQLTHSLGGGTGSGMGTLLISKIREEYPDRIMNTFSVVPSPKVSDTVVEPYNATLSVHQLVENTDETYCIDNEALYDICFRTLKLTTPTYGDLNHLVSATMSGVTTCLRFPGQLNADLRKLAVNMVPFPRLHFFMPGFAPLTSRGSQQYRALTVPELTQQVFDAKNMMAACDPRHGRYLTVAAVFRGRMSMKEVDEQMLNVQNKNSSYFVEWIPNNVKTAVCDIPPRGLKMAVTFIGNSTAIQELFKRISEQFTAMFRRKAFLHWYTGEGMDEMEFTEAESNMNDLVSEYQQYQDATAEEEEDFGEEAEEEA
UniProt P15331: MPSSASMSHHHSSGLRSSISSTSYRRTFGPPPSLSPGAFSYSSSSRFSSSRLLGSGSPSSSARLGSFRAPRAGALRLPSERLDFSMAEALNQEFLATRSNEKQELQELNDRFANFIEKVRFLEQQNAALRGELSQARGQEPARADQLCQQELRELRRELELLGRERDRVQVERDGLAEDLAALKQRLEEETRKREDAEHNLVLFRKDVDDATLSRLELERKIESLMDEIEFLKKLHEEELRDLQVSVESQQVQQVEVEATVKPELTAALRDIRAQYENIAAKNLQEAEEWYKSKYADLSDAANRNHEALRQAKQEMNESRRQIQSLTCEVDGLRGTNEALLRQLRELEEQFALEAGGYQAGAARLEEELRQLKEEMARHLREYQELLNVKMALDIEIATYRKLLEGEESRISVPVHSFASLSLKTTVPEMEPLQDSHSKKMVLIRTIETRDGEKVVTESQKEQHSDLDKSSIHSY
UniProt Q80ZM5: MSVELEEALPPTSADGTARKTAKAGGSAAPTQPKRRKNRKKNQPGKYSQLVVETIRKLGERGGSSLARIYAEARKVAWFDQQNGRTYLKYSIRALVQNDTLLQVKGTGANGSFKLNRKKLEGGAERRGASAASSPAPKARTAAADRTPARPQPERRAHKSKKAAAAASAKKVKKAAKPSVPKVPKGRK
UniProt Q7TPR4: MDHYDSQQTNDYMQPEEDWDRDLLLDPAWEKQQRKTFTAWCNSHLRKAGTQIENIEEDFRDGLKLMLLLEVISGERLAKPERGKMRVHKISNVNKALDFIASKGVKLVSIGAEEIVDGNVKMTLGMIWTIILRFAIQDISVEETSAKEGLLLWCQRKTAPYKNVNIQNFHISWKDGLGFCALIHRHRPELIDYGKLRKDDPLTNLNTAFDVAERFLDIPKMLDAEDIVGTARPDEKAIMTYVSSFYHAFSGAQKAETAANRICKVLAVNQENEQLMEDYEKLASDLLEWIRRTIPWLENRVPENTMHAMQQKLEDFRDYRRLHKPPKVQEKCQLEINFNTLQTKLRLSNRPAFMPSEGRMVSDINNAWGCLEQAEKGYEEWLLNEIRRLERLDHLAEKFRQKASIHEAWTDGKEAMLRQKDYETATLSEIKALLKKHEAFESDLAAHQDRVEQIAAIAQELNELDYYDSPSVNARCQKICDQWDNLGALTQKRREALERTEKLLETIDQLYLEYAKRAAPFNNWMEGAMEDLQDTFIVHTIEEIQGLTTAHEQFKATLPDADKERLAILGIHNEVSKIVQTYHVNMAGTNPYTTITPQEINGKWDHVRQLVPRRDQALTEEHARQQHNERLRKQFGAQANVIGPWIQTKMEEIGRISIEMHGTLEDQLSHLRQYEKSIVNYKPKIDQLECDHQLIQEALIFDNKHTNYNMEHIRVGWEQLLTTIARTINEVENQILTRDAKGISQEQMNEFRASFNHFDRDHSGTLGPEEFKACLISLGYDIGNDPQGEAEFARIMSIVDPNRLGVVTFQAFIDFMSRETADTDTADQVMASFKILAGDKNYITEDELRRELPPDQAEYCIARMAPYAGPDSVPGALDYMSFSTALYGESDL

B1: Rho guanine nucleotide exchange factor 7 β-PIX (protein, UniProt Q9ES28 1-862)
chain: MNSAEQTVTWLITLGVLESPKKTISDPEVFLQASLKDGVVLCRLLERLLPGTIEKVYPEPRNESECLSNIREFLRACGASLRLETFDANDLYQGQNFNKVLSSLVTLNKVTADIGLGSDSVCARPSSHRIKSFDSLGSQSSHSRTSKLLQSQYRSLDMTDNTNSQLVVRAKFNFQQTNEDELSFSKGDVIHVTRVEEGGWWEGTHNGRTGWFPSNYVREIKPSEKPVSPKSGTLKSPPKGFDTTAINKSYYNVVLQNILETEHEYSKELQSVLSTYLRPLQTSDKLSSANTSYLMGNLEEISSFQQVLVQSLEECTKSPEAQQRVGGCFLSLMPQMRTLYLAYCANHPSAVSVLTEHSEDLGEFMETKGASSPGILVLTTGLSKPFMRLDKYPTLLKELERHMEDYHPDRQDIQKSMTAFKNLSAQCQEVRKRKELELQILTEPIRSWEGDDIKTLGSVTYMSQVTIQCAGSEEKNERYLLLFPNLLLMLSASPRMSGFIYQGKLPTTGMTITKLEDSENHRNAFEISGSMIERILVSCTSQQDLHEWVEHLQKQTKVTSVSNPTIKPHSVPSHTLPSHPLTPSSKHADSKPVALTPAYHTLPHPSHHGTPHTTISWGPLEPPKTPKPWSLSCLRPAPPLRPSAALCYKEDLSKSPKTMKKLLPKRKPERKPSDEEFAVRKSTAALEEDAQILKVIEAYCTSAKTRQTLNSTWQGTDLMHNHVLADDDQSSLDSLGRRSSLSRLEPSDLSEDSEYDSIWTAHSYRMGSASRSRKESAPQVLLPEEEKIIVEETKSNGQTVIEEKSLVDTVYALKDEVQELRQDNKKMKKSLEEEQRARKDLEKLVRKVLKNMNDPAWDETNL
B2: Alpha-1,4-N-acetylglucosaminyltransferase (protein, UniProt Q14BT6 1-341)
chain: MLKEIYLSLSLVLVFACGLLYQLTMRSQCFFACLPPFSFPQGLDGLLRSGRSIMFIETSERVEPPPMVSCAVESAAKIYPEQPIIFFMKGLRDSVQLTSNTSYPAFSLLSAINNVFFVPLDMERLFKDTPLFSWYTKVNSSTEKHWLHVSSDAARLAIIWKYGGIYMDTDVISLQPIPEENFLAAQGSRHSSNGVFGFLPHHPFLWACMENFVEHYDSTIWGNQGPQLMTRMLRVWCRLKDFHGLGDLKCLNISFLHPQRFYPIPYPQWKRYYQVWDKEPSFNESYALHLWNYMNKEGKTVVRGSKTLVENLYQKHCPKTYRVLIQGAEGTVSKKPGTGSR
B3: ARF GTPase-activating protein GIT1 (protein, UniProt Q68FF6 1-770)
chain: MSRKGPRAEVCADCSAPDPGWASISRGVLVCDECCSVHRSLGRHISIVKHLRHSAWPPTLLQMVHTLASNGANSIWEHSLLDPAQVQSGRRKANPQDKVHPIKSEFIRAKYQMLAFVHKLPCRDDDGVTAKDLSKQLHSSVRTGNLETCLRLLSLGAQANFFHPEKGTTPLHVAAKAGQTLQAELLVVYGADPGSPDVNGRTPIDYARQAGHHELAERLVECQYELTDRLAFYLCGRKPDHKNGHYIIPQMADRSRQKCMSQSLDLSELAKAAKKKLQALSNRLFEELAMDVYDEVDRRENDAVWLATQNHSTLVTERSAVPFLPVNPEYSATRNQGRQKLARFNAREFATLIIDILSEAKRRQQGKSLSSPTDNLELSARSQSELDDQHDYDSVASDEDTDQEPLPSAGATRNNRARSMDSSDLSDGAVTLQEYLELKKALATSEAKVQQLMKVNSSLSDELRRLQREIHKLQAENLQLRQPPGPVPPPSLPSERAEHTLMGPGGSTHRRDRQAFSMYEPGSALKPFGGTPGDELATRLQPFHSTELEDDAIYSVHVPAGLYRIRKGVSASSVPFTPSSPLLSCSQEGSRHASKLSRHGSGADSDYENTQSGDPLLGLEGKRFLELSKEDELHPELESLDGDLDPGLPSTEDVILKTEQVTKNIQELLRAAQEFKHDSFVPCSEKIHLAVTEMASLFPKRPALEPVRSSLRLLNASAYRLQSECRKTVPPEPGAPVDFQLLTQQVIQCAYDIAKAAKQLVTITTREKKQ
B4: Rho guanine nucleotide exchange factor 6 α-PIX (protein, UniProt Q8K4I3 1-771)
chain: MNPEERLVTWLISLGVLESPKKTVCDPEEFLKSSLKNGVVLCKLINRLLPGSVEKYCLEPQTEADCIDNINDFLKGCATLQVEVFEPDDLYSGANFSKVLNTLLAVNKATEDQLSERPCGRSSSLSAATSSQTNPQVAVPSTAPEQHSEEKAEMTENGSHQLIVKARFNFKQTNEDELSVCKGDIIYVTRVEEGGWWEGTLNGRTGWFPSNYVREIKPSERPLSPKAIKGFDTAPLTKNYYTVVLQNILDTEKEYAKELQSLLVTYLRPLQSNNNLSTVEFTCLLGNFEEVCTFQQTLCQALEECSKFPENQHKVGGCLLNLMPHFKSMYLAYCANHPSAVNVLTQHSDDLERFMENQGASSPGILILTTSLSKPFMRLEKYVTLLQELERHMEDTHPDHQDILKAIIAFKTLMGQCQDLRKRKQLELQILSEPIQAWEGDDIKTLGNVIFMSQVVMQHGACEEKEERYFLLFSSVLIMLSASPRMSGFMYQGKIPIAGMVVNRLDEIEGSDCMFEITGSTVERIVVHCNNNQDFQEWMEQLNRLTKGPTSCGSLSKTSSSSCSTHSSFSSTGQPRGPLEPPQIIKPWSLSCLRPAPPLRPSAALGYKERMSYILKESSKSPKTMKKFLHKRKTERKASEEEYVIRKSTAALEEDAQILKVIEAYCTSASFQQGTRKDSVPQVLLPEEEKLIIEETRSNGQTIIEEKSLVDTVYALKDEVKELKQENKKMKQCLEEELKSRKDLEKLVRKLLKQTDECIRSESSSKTSILQ
B5: ARF GTPase-activating protein GIT2 (protein, UniProt Q9JLQ2 1-708)
chain: MSKRLRSSDVCADCNGPDPSWASVNRGTFICDECCSVHRSLGRHISQVRHLKHTAWPPTLLQMVETLYNNGANSIWEHSLLDPASIMSGRRKANPQDKVHPNKAEFIRAKYQMLAFVHRLPCREDDSVTAKDLSKQLHSSVRTGNLETCLRLLSLGAQANFFHPEKGSTPLHVASKAGQILQAELLAVYGADPGTQDSSGKTPVDYARQGGHHELAERLIEIQYELTDRLAFYLCGRKPDHKSGQHFLIPQRADSLDLSELAKAAKKKLQSLSNHLFEELAMDVYDEVDRRETDAVWLATQNHSTLVTETTVVPFLPVNPEYSSTRNQGRQKLARFNAHEFATLVIDILSDAKRRQQGSPLSRSKDNVELILRTVSTQHSTESQDNDQPDYDSVASDEDTDVETRASKANRQKLQTLQSENSSLRRQATASACQVQTGSDHKDTASHSSLKRRPSARGSRPMSMYETGSGQKPYLPMGEASHPEESRTRLQPFPTHIGRSALVTSSSSLPSFPSTLSWSRDESARRASRLEKQNSTPESDYDNTACDPEPDDTGSTRKGRQRSMLWQGDGLLPDTAEPHSVPSPTLPSTEDVIRKTEQITKNIQELLRAAQENKHDSYIPCSERIHVAVTEMAALFPKKPKSDTVRTSLRLLTSSAYRLQSECRKALPGDSSLPTDVQLVTQQVIQCAYDIAKAAKQLVTITTKENSS
B6: Casein kinase II subunit alpha-interacting protein (protein, UniProt Q8CH19 1-720)
chain: MVPLGYNNKYFGYVQDCQQQATDNSPIHYYTGDKQNQSYSQSMCKEQSQNTVTVSPASFNKKAQSTQGSYNRAMKSSSSLYSTCSTTPSKDSLLKNSSYPSWKSLDSSLSHHKSETTSLTSFTSTSSLEPSKISSRSRLLLPKTQTSSSIDLCWKSPSLESNQRVSTSSSTSVQHHEAPSLNIIWTTPSLESNQSEHDSQLCKSKSQKDSSLDRLWSSLLESSQKALSSPSFTNRLQRNSFPPTSSSLEFSRVARNSPLPDCSKPLKIPVSNSNNNVFSLPLSPAKSRKSTPSPHSFLPSRRLSTCQPKPKIVARCDPSTRAINTAVCHPKVQNTASLSDKQRPRQLPSIHPKPNPSGQRVSSPKPCIKNKIASVPCSRLPNKSSVERSVKTEPENEISWALDYSHPCIIKGGSVPVDVVNKIINSISKSTIQKDLSRQILFRRMRGKPNPRPGPRLSSTYSVCLECASAIKSQCNHLSGKRDPRCATLFVIPTPESSTDGKVDVKIILILSLPEKPSSTCFQLPMKDSKSENNLEALDDNLDVLEKITQFFPASESDFIQGLKTKRKCLAVSSESKDLSQEPQSIDWLLYVKNSNGIQLETQVQGPSSSSSSSCSSVSSSSSASSIGRPSPPTPWVDPTPVPVSGYVLAKVRSYHRLPPGTSWLEFIRGSSSDTIKLRQSPPVKAKPVRSHNSKCLKKGKRETSALLRYFQTKFQNEKS

Key:
[1] = target: Serine/threonine-protein kinase PAK2 (mouse (endogenous in Neuro2A)) (UniProt Q8CIN4); assay: affinity purification with mass spectrometry; PAK2 immunoprecipitated with PAK2 antibody-conjugated beads (2 h) from lysates (PBS pH 7.4, 1% DDM) of Neuro2A cells treated without or with PQA-18 100 nM for 30 min in the absence or presence of anti-IL-31Rα antibody 50 ng/ml; washed with PBS, 0.05% …; tryptic peptides analysed by LC/MS/MS; normal rabbit IgG-beads as negative control
[2] = target: Serine/threonine-protein kinase PAK2 (mouse (endogenous in Neuro2A)) (UniProt Q8CIN4); assay: as above; remark: listed apart in the source

Molecule | binding [1] | binding [2]
Tubulin beta-5 chain (from UniProt P99024 1-444) | binds | –
Peripherin (from UniProt P15331 1-475) | binds | –
H1 histone family, member X (from UniProt Q80ZM5 1-188) | binds | –
Alpha-actinin-1 (from UniProt Q7TPR4 1-892) | binds | –
B1 | – | binds
B2 | – | binds
B3 | – | binds
B4 | – | binds
B5 | – | binds
B6 | – | binds
